These are yes or no findings as the source states them, for the method shown. Some binding calls cover weakened binding; strength is not graded here.
Legend:
[1] = target: human IL1RAP (analyte of the Biacore study) (human) (UniProt Q9NPH3); experiment: SPR (Biacore T200)
[2] = target: human IL1RAP on cells (human) (UniProt Q9NPH3); experiment: flow cytometry on IL1RAP-expressing BV173 cells, 1 µg/mL
[3] = target: human IL1RAP on cells (human) (UniProt Q9NPH3); experiment: flow cytometry on BV173 cells, 1 µg/mL antibody, secondary anti-hIgG-PE, MFI
[4] = target: human IL1RAP on cells (human) (UniProt Q9NPH3); experiment: flow cytometry on IL1RAP-expressing BV173 cells, 1 µg/mL, anti-hIgG-PE
[5] = target: human IL1RAP on cells (human) (UniProt Q9NPH3); experiment: flow cytometry on BV173 cells (FIG. 3)

Chains of the proteins cited; added tags and fusions are not shown. Lines headed by an entry give the natural chain unless they say otherwise; changes in a name come on top. Residues count along the entry.
UniProt Q9NPH3: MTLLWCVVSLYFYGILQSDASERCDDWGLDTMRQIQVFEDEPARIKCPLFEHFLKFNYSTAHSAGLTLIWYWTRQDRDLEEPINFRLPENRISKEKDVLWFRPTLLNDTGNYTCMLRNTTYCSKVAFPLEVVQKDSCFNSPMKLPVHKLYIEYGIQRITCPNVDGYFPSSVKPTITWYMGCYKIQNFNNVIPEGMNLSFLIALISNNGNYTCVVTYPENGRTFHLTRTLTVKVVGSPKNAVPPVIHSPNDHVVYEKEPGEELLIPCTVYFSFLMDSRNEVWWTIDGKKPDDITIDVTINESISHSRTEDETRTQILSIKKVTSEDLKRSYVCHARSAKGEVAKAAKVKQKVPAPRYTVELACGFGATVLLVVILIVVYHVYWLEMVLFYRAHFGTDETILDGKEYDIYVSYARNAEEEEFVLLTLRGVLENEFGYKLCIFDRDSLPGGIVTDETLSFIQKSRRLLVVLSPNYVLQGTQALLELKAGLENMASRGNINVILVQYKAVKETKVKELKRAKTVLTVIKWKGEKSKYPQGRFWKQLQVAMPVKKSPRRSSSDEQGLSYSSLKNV
human IL1RAP on cells: residues 21-570 of Q9NPH3
human IL1RAP (analyte of the Biacore study): residues 21-367 of Q9NPH3

Measured: binding

B1: CAN04 (antibody, V domains shown)
VH: QVQLQQSGPELLKPGASVKISCKASGYAFSSSWMNWVKQRPGKGLEWIGRIYPGDGNTHYSGKFKGKATLTADKSSSIAYMQLSSLTSEDSAVYFCGEGYLDPMDYWGQGTSVTVSS
VL: DIQMTQTTSSLSASLGDRVTISCSASQGINNYLNWYQQKPDGTVKLLIHYTSGLHAGVPSRFSGSGSGTDYSLTISNLEPEDVATYYCQQYSILPWTFGGGTKLEIKR
notes: Murine-derived monoclonal IgG; It was PE-conjugated on primary cells and AF488-labelled for confocal microscopy; also called exemplary antibody of the invention
binds: [1]

B2: hCAN04 Variant 6 (antibody, human IgG1, kappa, V domains shown)
VH: QVQLVQSGAEVKKPGSSVKVSCKASGYAFTSSWMNWVRQAPGQGLEWMGRIYPGDGNTHYAQKFQGRVTLTADKSTSTAYMELSSLRSEDTAVYYCGEGYLDPMDYWGQGTLVTVSS
VL: DIQMTQSPSSLSASVGDRVTITCQASQGINNYLNWYQQKPGKAPKLLIHYTSGLHAGVPSRFSGSGSGTDYTLTISSLEPEDVATYYCQQYSILPWTFGGGTKVEIKR
notes: Human IgG1za / kappa, expressed in CHOK1SV cells; also called Var6; humanized variant 6 of CAN04
not listed: [1]
binds: all other assays above

B3: hCAN04 Variant 8 (antibody, human IgG1, kappa, V domains shown)
VH: QVQLVQSGAEVKKPGSSVKVSCKASGYTFTSSWMNWVRQAPGKGLEWMGRIYPGDGQTHYAQKFQGRVTITADKSTSTAYMELSSLRSEDTAVYYCGEGYLDPMDYWGQGTLVTVSS
VL: DIQMTQSPSSLSASVGDRVTITCQASQGINNYLNWYQQKPGKAPKLLIHYTSGLHAGVPSRFSGSGSGTDYTLTISSLEPEDVATYYCQQYSILPWTFGGGTKVEIKR
notes: Human IgG1za / kappa, expressed in CHOK1SV cells; also called Var8; humanized variant 8 of CAN04
binds: [3] | [4] | [5]

B4: hCAN04 Variant 2 (antibody, human IgG1, kappa, V domains shown)
VH: QVQLVQSGAEVKKPGSSVKVSCKASGYAFTSSWMNWVRQAPGQGLEWMGRIYPGDGNTHYAQKFQGRVTLTADKSTSTAYMELSSLRSEDTAVYYCGEGYLDPMDYWGQGTLVTVSS
VL: DIQMTQSPSSLSASVGDRVTITCSASQGINNYLNWYQQKPGKAPKLLIHYTSGLHAGVPSRFSGSGSGTDYTLTISSLQPEDVATYYCQQYSILPWTFGGGTKVEIKR
notes: Human IgG1za / kappa, expressed in CHOK1SV cells; also called Var2; humanized variant 2 of CAN04
not listed: [1]
binds: all other assays above

B5: hCAN04 Variant 9 (antibody, human IgG1, kappa, V domains shown)
VH: QVQLVQSGAEVKKPGSSVKVSCKASGYAFSSSWMNWVRQAPGQGLEWMGRIYPGDGNTHYAQKFQGRVTLTADKSTSTAYMELSSLRSEDTAVYYCGEGYLDPMDYWGQGTLVTVSS
VL: DIQMTQSPSSLSASVGDRVTITCQASQGINNYLNWYQQKPGKAPKLLIHYTSGLHAGVPSRFSGSGSGTDFTLTISSLEPEDVATYYCQQYSILPWTFGGGTKVEIKR
notes: Human IgG1za / kappa, expressed in CHOK1SV cells; also called Var9; humanized variant 9 of CAN04
not listed: [1]
binds: all other assays above

B6: hCAN04 Variant 7 (antibody, human IgG1, kappa, V domains shown)
VH: QVQLVQSGAEVKKPGSSVKVSCKASGYTFTSSWMNWVRQAPGKGLEWMGRIYPGDGQTHYAQKFQGRVTLTADKSTSTAYMELSSLRSEDTAVYYCGEGYLDPMDYWGQGTLVTVSS
VL: DIQMTQSPSSLSASVGDRVTITCQASQGINNYLNWYQQKPGKAPKLLIHYTSGLHAGVPSRFSGSGSGTDYTLTISSLEPEDVATYYCQQYSILPWTFGGGTKVEIKR
notes: Human IgG1za / kappa, expressed in CHOK1SV cells; also called Var7; humanized variant 7 of CAN04
binds: [3] | [4] | [5]

B7: hCAN04 Variant 11 (antibody, human IgG1, kappa, V domains shown)
VH: QVQLVQSGAEVKKPGSSVKVSCKASGYTFTSSWMNWVRQAPGKGLEWMGRIYPGDGQTHYAQKFQGRVTLTADKSTSTAYMELSSLRSEDTAVYYCGEGYLDPMDYWGQGTLVTVSS
VL: DIQMTQSPSSLSASVGDRVTITCQASQGINNYLNWYQQKPGKAPKLLIHYTSGLHAGVPSRFSGSGSGTDFTLTISSLEPEDVATYYCQQYSILPWTFGGGTKVEIKR
notes: Human IgG1za / kappa, expressed in CHOK1SV cells; also called Var11; humanized variant 11 of CAN04
binds: [3] | [4] | [5]

B8: hCAN04 Variant 5 (antibody, human IgG1, kappa, V domains shown)
VH: QVQLVQSGAEVKKPGSSVKVSCKASGYAFSSSWMNWVRQAPGQGLEWMGRIYPGDGNTHYAQKFQGRVTLTADKSTSTAYMELSSLRSEDTAVYYCGEGYLDPMDYWGQGTLVTVSS
VL: DIQMTQSPSSLSASVGDRVTITCQASQGINNYLNWYQQKPGKAPKLLIHYTSGLHAGVPSRFSGSGSGTDYTLTISSLEPEDVATYYCQQYSILPWTFGGGTKVEIKR
notes: Human IgG1za / kappa, expressed in CHOK1SV cells; also called Var5; humanized variant 5 of CAN04
not listed: [1]
binds: all other assays above

B9: hCAN04 Variant 4 (antibody, human IgG1, kappa, V domains shown)
VH: QVQLVQSGAEVKKPGSSVKVSCKASGYTFTSSWMNWVRQAPGKGLEWMGRIYPGDGQTHYAQKFQGRVTITADKSTSTAYMELSSLRSEDTAVYYCGEGYLDPMDYWGQGTLVTVSS
VL: DIQMTQSPSSLSASVGDRVTITCSASQGINNYLNWYQQKPGKAPKLLIHYTSGLHAGVPSRFSGSGSGTDYTLTISSLQPEDVATYYCQQYSILPWTFGGGTKVEIKR
notes: Human IgG1za / kappa, expressed in CHOK1SV cells; also called Var4; humanized variant 4 of CAN04
binds: [3] | [4] | [5]

B10: hCAN04 Variant 3 (antibody, human IgG1, kappa, V domains shown)
VH: QVQLVQSGAEVKKPGSSVKVSCKASGYTFTSSWMNWVRQAPGKGLEWMGRIYPGDGQTHYAQKFQGRVTLTADKSTSTAYMELSSLRSEDTAVYYCGEGYLDPMDYWGQGTLVTVSS
VL: DIQMTQSPSSLSASVGDRVTITCSASQGINNYLNWYQQKPGKAPKLLIHYTSGLHAGVPSRFSGSGSGTDYTLTISSLQPEDVATYYCQQYSILPWTFGGGTKVEIKR
notes: Human IgG1za / kappa, expressed in CHOK1SV cells; also called Var3; humanized variant 3 of CAN04
binds: [3] | [4] | [5]

B11: hCAN04 Variant 1 (antibody, human IgG1, kappa, V domains shown)
VH: QVQLVQSGAEVKKPGSSVKVSCKASGYAFSSSWMNWVRQAPGQGLEWMGRIYPGDGNTHYAQKFQGRVTLTADKSTSTAYMELSSLRSEDTAVYYCGEGYLDPMDYWGQGTLVTVSS
VL: DIQMTQSPSSLSASVGDRVTITCSASQGINNYLNWYQQKPGKAPKLLIHYTSGLHAGVPSRFSGSGSGTDYTLTISSLQPEDVATYYCQQYSILPWTFGGGTKVEIKR
notes: Human IgG1za / kappa, expressed in CHOK1SV cells; also called Var1; humanized variant 1 of CAN04
not listed: [1]
binds: all other assays above

B12: hCAN04 Variant 10 (antibody, human IgG1, kappa, V domains shown)
VH: QVQLVQSGAEVKKPGSSVKVSCKASGYAFTSSWMNWVRQAPGQGLEWMGRIYPGDGNTHYAQKFQGRVTLTADKSTSTAYMELSSLRSEDTAVYYCGEGYLDPMDYWGQGTLVTVSS
VL: DIQMTQSPSSLSASVGDRVTITCQASQGINNYLNWYQQKPGKAPKLLIHYTSGLHAGVPSRFSGSGSGTDFTLTISSLEPEDVATYYCQQYSILPWTFGGGTKVEIKR
notes: Human IgG1za / kappa, expressed in CHOK1SV cells; also called Var10; humanized variant 10 of CAN04
not listed: [1]
binds: all other assays above

B13: hCAN04 Variant 12 (antibody, human IgG1, kappa, V domains shown)
VH: QVQLVQSGAEVKKPGSSVKVSCKASGYTFTSSWMNWVRQAPGKGLEWMGRIYPGDGQTHYAQKFQGRVTITADKSTSTAYMELSSLRSEDTAVYYCGEGYLDPMDYWGQGTLVTVSS
VL: DIQMTQSPSSLSASVGDRVTITCQASQGINNYLNWYQQKPGKAPKLLIHYTSGLHAGVPSRFSGSGSGTDFTLTISSLEPEDVATYYCQQYSILPWTFGGGTKVEIKR
notes: Human IgG1za / kappa, expressed in CHOK1SV cells; also called Var 12; humanized variant 12 of CAN04
binds: [3] | [4] | [5]

Source: patent US20250340657A1 (CANTARGIA, published 2025)
